{"source": "PubChem BioAssay AID493014", "about": "(National Center for Advancing Translational Sciences (NCATS), 2011)", "note": "Among all 340,000 compounds or so, about 170 (0.05%) were called active. The inconclusive results got no clear call from the source; some entries with a clear call stand among them for comparison. Calls follow the shape of the dose curve; as a rule, active = well fitted inhibition curve with a large enough effect in the signal ratio, with a control signal flat (not every such curve was filed as active); inconclusive = small, poorly fitted or top-dose-only effect, or effect the other way, or a change in a side signal; inactive = flat fitted curve, though single readings scatter; the % refers to the signal ratio. A potency beside an inconclusive call is a rough fit, not a confirmed value. Potency is read from the fitted curve at half-maximal effect.", "data": [{"test": "qHTS Assay to Find Inhibitors of Chronic Active B-Cell Receptor Signaling;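 as to activity change, negative = inhibition: plate controls were basal doxycycline-induced cells for no effect and cells given 10 µM MG132 for full effect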", "conditions": "ABC-DLBCL IkBa-CBG/CBR reporter, luminescence ratio (green luciferase fused to IkBa over red control in TMD8 lymphoma cells), 4 h; activity change, negative = inhibition: at 46.1 µM (top of the series)", "in_short": "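Doxycycline induced both beetle luciferases in TMD8 lymphoma cells; IKK-driven degradation limits the IkappaBalpha-fused green signal, while red luminescence normalises for cell number and nonspecific effects. Compounds tested up to 46 uM, 4 hrs.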", "values": [{"smiles": "COCCn1c(=N)c(C(=O)NCCc2ccc(OC)cc2)cc2c(=O)n3cccc(C)c3nc21", "activity change, negative = inhibition": "inconclusive: 1.97%"}, {"smiles": "Cc1ccc2[nH]cc(CCNC(=O)c3ccco3)c2c1", "activity change, negative = inhibition": "inconclusive: 12.1%"}, {"smiles": "COc1ccc(C2(CNC(=O)CCC(=O)O)CCCC2)cc1OC", "activity change, negative = inhibition": "inconclusive: -0.727%"}, {"smiles": "NC(=S)N/N=C/c1ccc(-c2ccc([N+](=O)[O-])cc2)o1", "activity change, negative = inhibition": "inconclusive: -22.5%"}, {"smiles": "Cc1ccc(NC(=S)Nc2ccc(C(C)C)cc2)cc1S(=O)(=O)N1CCCCCC1", "activity change, negative = inhibition": "inconclusive: -0.605%"}, {"smiles": "CCOc1cc(C(=O)N2CCC(c3ccncc3)CC2)cc(OCC)c1OCC", "activity change, negative = inhibition": "inconclusive: -28.3%"}, {"smiles": "O=C(CSCc1c(F)cccc1Cl)NCCc1ccccc1", "activity change, negative = inhibition": "inconclusive: 4.44%"}, {"smiles": "Cc1nn(Cc2ccc(C(=O)Nc3nccs3)cc2)c(C)c1Cl", "activity change, negative = inhibition": "inconclusive: 1.14%"}, {"smiles": "CCn1c(=S)[nH]c2nc3c(cc2c1=O)CCCC3", "activity change, negative = inhibition": "inactive"}, {"smiles": "CC(C)(C)c1cc(C(=O)NNS(=O)(=O)c2ccccc2)n[nH]1", "activity change, negative = inhibition": "inconclusive: 6.8%"}, {"smiles": "Cc1nc2ccccc2c(=O)n1/N=C/c1cn[nH]c1-c1ccccc1", "activity change, negative = inhibition": "inconclusive: 8.33%"}, {"smiles": "CCC(=O)NC(=S)NNC(=O)c1ccc([N+](=O)[O-])cc1", "activity change, negative = inhibition": "inactive"}, {"smiles": "Fc1ccc(Cn2nnnc2C(c2cccs2)N2CCN(C3CCCCC3)CC2)cc1", "note": "(stereo not drawn)", "activity change, negative = inhibition": "inactive"}, {"smiles": "C/C(CS(=O)(=O)c1ccccc1)=N\\O", "activity change, negative = inhibition": "inactive"}, {"smiles": "O=C(CSc1nnc(CNc2ccc(Cl)cc2)o1)Nc1nc2ccccc2s1", "activity change, negative = inhibition": "inconclusive: 6.99%"}, {"smiles": "O=C(CSCc1cccc(Br)c1)N/N=C/c1ccc2c(c1)OCO2", "Potency": "inconclusive: 35.5 µM [falling, partial curve, poor fit]"}, {"smiles": "CCNC(=S)N1CCc2cc(OC)c(OC)cc2C1COc1ccccc1OC", "note": "(stereo not drawn)", "activity change, negative = inhibition": "inconclusive: 1.31%"}, {"smiles": "O=C(c1ccc(F)cc1F)N1CCN(S(=O)(=O)c2ccc3c(c2)OCCO3)CC1", "activity change, negative = inhibition": "inactive"}, {"smiles": "C=CCn1c(CCNC(=O)c2ccccc2F)nnc1SCC(=O)Nc1nc(C)cs1", "Potency": "inconclusive: 6.51 µM [rising, partial curve, poor fit]"}, {"smiles": "O=C1/C(=C/c2ccsc2)N2CCC1CC2", "activity change, negative = inhibition": "inconclusive: -11.3%"}, {"smiles": "COc1ccc2c(c1OC)C(=O)N1N=C(c3ccccc3)CC21", "note": "(stereo not drawn)", "Potency": "inconclusive: 6.51 µM [falling, single point]"}, {"smiles": "COc1cccc(OCC(O)CN2CCN(c3ccc(Cl)cc3)CC2)c1", "note": "(stereo not drawn)", "activity change, negative = inhibition": "inactive"}, {"smiles": "COc1cccc(CN(C)CC2CCCN(CCc3ccccc3C)C2)c1", "note": "(stereo not drawn)", "activity change, negative = inhibition": "inactive"}, {"smiles": "CCOc1ccccc1C1C2=C(COC2=O)Nc2cc3c(cc21)OCO3", "note": "(stereo not drawn)", "Potency": "inconclusive: 14.1 µM [falling, partial curve]"}, {"smiles": "COCCNC(=S)N=Nc1c(O)[nH]c2ccc([N+](=O)[O-])cc12", "activity change, negative = inhibition": "inconclusive: 4.09%"}, {"smiles": "CCc1ccc2nc(NC(=O)C3CCN(c4ncnc5sc(C)c(C)c45)CC3)sc2c1", "activity change, negative = inhibition": "inconclusive: -0.964%"}, {"smiles": "CCCCNCCOCCSc1ccc(Cl)cc1", "Potency": "inconclusive: 17.8 µM [falling, partial curve, poor fit]"}, {"smiles": "CC(C)N(CCC(=O)c1ccc2ccccc2c1)Cc1ccccc1", "Potency": "inconclusive: 10.3 µM [falling, partial curve]"}, {"smiles": "C/C(=N\\NC(=O)c1cc(Br)ccc1O)c1cccs1", "Potency": "inconclusive: 0.708 µM [rising, partial curve, poor fit]"}, {"smiles": "COc1ccc(-n2cc(C(=O)c3ccccc3O)cn2)cc1", "activity change, negative = inhibition": "inconclusive: 351%"}, {"smiles": "CCOC(=O)N1CCC(NC(=O)CN2C(=O)C(CC)Oc3ccc(C)cc32)CC1", "note": "(stereo not drawn)", "activity change, negative = inhibition": "inconclusive: 12%"}, {"smiles": "O=C(c1cccnc1)N1CCN(C/C=C/c2ccccc2)CC1", "activity change, negative = inhibition": "inactive"}, {"smiles": "Cc1ccc(C(O)(C(=O)NN(C(=O)c2ccccc2)c2ccccc2)c2ccc(C)cc2)cc1", "activity change, negative = inhibition": "inconclusive: -3.84%"}, {"smiles": "COc1ccc(C2c3[nH]c4ccccc4c3C[C@H]3C(=O)N(c4ccccc4C(=O)NCCN4CCOCC4)C(=O)N23)cc1", "note": "(stereo partly drawn)", "activity change, negative = inhibition": "inactive"}, {"smiles": "O=C(CSc1nc(C2CC2)nc2ccccc12)N1CCCCC1", "activity change, negative = inhibition": "inconclusive: -1.91%"}, {"smiles": "Cc1c(-c2ccccc2)c(=O)oc2cc(O)ccc12", "Potency": "inconclusive: 3.55 µM [rising, full curve, poor fit]"}, {"smiles": "CCOC(=O)c1c(NC(=O)/C=C/C(=O)O)sc(C)c1-c1ccc(Cl)cc1", "activity change, negative = inhibition": "inconclusive: -18.1%"}, {"smiles": "O=C(O)C=C(Br)Br", "activity change, negative = inhibition": "inconclusive: -28.8%"}, {"smiles": "O=C(CSc1ncn[nH]1)Nc1ccccc1Sc1ccccc1", "activity change, negative = inhibition": "inconclusive: -14.3%"}, {"smiles": "CCN1C(=O)/C(=C/c2ccc(C)s2)NC1=S", "activity change, negative = inhibition": "inconclusive: 19.6%"}, {"smiles": "CS(=O)(=O)N(CC(=O)Nc1ccc2c(c1)OCO2)c1ccc2c(c1)OCO2", "Potency": "inconclusive: 20.6 µM [falling, partial curve, poor fit]"}, {"smiles": "CC(=O)c1c(C)nc2ccc([N+](=O)[O-])cc2c1-c1ccccc1", "activity change, negative = inhibition": "inconclusive: 12%"}, {"smiles": "COc1ccc(C2CC(=O)Nc3ccccc3S2(=O)=O)cc1OC", "note": "(stereo not drawn)", "Potency": "inconclusive: 22.4 µM [falling, partial curve]"}, {"smiles": "O=C(Nc1ccc2ccccc2n1)c1ccccc1", "Potency": "inconclusive: 7.94 µM [falling, partial curve]"}, {"smiles": "CCOC(=O)c1ccc(NC(=O)CN2C(=O)CN(C(C)=O)C2=S)cc1", "activity change, negative = inhibition": "inconclusive: -13.8%"}, {"smiles": "CCCSCC(=O)Nc1ncc2c(n1)-c1ccccc1CC2", "activity change, negative = inhibition": "inconclusive: 8.06%"}, {"smiles": "CC(=O)c1cccc(NC(=O)c2ccc(Br)o2)c1", "activity change, negative = inhibition": "inconclusive: -5.09%"}, {"smiles": "CC(C)c1ccc(NCCC(=O)c2cccs2)cc1", "activity change, negative = inhibition": "inconclusive: 2.55%"}, {"smiles": "Cc1cccc(NC(=O)c2sc3nc(-c4ccccc4)cn3c2C)n1", "Potency": "inconclusive: 18.4 µM [falling, single point]"}, {"smiles": "Nn1cnc2c(c1=O)C1(CCCCC1)Cc1ccccc1-2", "activity change, negative = inhibition": "inactive"}, {"smiles": "CC1CC(C)CN(C(=O)COC(=O)c2ccc3ccccc3n2)C1", "note": "(stereo not drawn)", "activity change, negative = inhibition": "inactive"}, {"smiles": "O=C(O)c1ccc(NC(=S)NC(=O)c2ccc(-c3ccccc3)cc2)cc1", "Potency": "inconclusive: 5.62 µM [rising, single point]"}, {"smiles": "Cc1ccnc2c1ccc1ccccc12", "activity change, negative = inhibition": "inconclusive: -5.21%"}, {"smiles": "CCOC(=O)CSc1ncc(-c2ccccc2)cn1", "Potency": "inconclusive: 11.2 µM [rising, partial curve, poor fit]"}, {"smiles": "COc1ccc(NC(=S)N(CCc2ccc(OC)c(OC)c2)Cc2ccccn2)cc1", "activity change, negative = inhibition": "inconclusive: 4.58%"}, {"smiles": "COC(OC)C(C)NC(=O)NC(=O)c1ccccc1Cl", "note": "(stereo not drawn)", "activity change, negative = inhibition": "inconclusive: -71.5%"}, {"smiles": "Cc1ccccc1CC1CCN(CCCNC(=O)Nc2ccccc2)CC1", "activity change, negative = inhibition": "inactive"}, {"smiles": "O=C(Nc1c2c(nn1-c1ccc(Cl)cc1)CS(=O)(=O)C2)c1ccccc1F", "activity change, negative = inhibition": "inconclusive: 5.32%"}, {"smiles": "Cc1ccc(C(O)(C(=O)NNc2ccc3ccccc3n2)c2ccc(C)cc2)cc1", "activity change, negative = inhibition": "inconclusive: 3.94%"}, {"smiles": "Cc1cc(NC(=O)CSc2nnc(C3COc4ccccc4O3)n2C)no1", "note": "(stereo not drawn)", "activity change, negative = inhibition": "inactive"}, {"smiles": "S=c1[nH]nc(-c2ccc(Cl)cc2)n1/N=C/c1ccco1", "activity change, negative = inhibition": "inactive"}, {"smiles": "CCOc1ccc(S(=O)(=O)N2CCCC(C(=O)N3CCN(CC)CC3)C2)cc1Cl", "note": "(stereo not drawn)", "Potency": "inconclusive: 14.1 µM [rising, partial curve, poor fit]"}, {"smiles": "CCCC1=NN(c2ccc([N+](=O)[O-])cc2)C(=O)/C1=C\\N(C)C", "Potency": "inconclusive: 29.1 µM [falling, single point]"}, {"smiles": "COc1ccc(C2NC(=O)N(C)C3=C2C(=O)N(c2ccc(F)cc2)C3)cc1", "note": "(stereo not drawn)", "activity change, negative = inhibition": "inactive"}, {"smiles": "N#Cc1ccc(Nc2nc(-c3ccc(O)cc3O)cs2)cc1C(F)(F)F", "activity change, negative = inhibition": "inconclusive: 25.7%"}, {"smiles": "OCC1(CCOc2ccccc2)CCN(Cc2cn[nH]c2-c2ccc(F)cc2)CC1", "activity change, negative = inhibition": "inconclusive: 0.6%"}, {"smiles": "Fc1ccc(Cn2c(-c3cccc(Br)c3)nc3ccccc32)cc1", "Potency": "inconclusive: 1.78 µM [rising, partial curve, poor fit]"}, {"smiles": "CC(=O)N1CCN(C(=O)c2cc(S(=O)(=O)N3CCCCC3)ccc2Cl)CC1", "activity change, negative = inhibition": "inactive"}, {"smiles": "CC(=O)/C(N=Nc1ccc2c(c1)OCO2)=C(\\C)O", "activity change, negative = inhibition": "inconclusive: -1.64%"}, {"smiles": "O=c1[nH]nc(SCc2cc(Cl)ccc2Cl)c(=O)[nH]1", "activity change, negative = inhibition": "inconclusive: -1.42%"}, {"smiles": "CCCCNC(=O)COc1ccccc1[N+](=O)[O-]", "activity change, negative = inhibition": "inconclusive: -1.78%"}, {"smiles": "O=C(Nc1nnc(-c2ccco2)o1)c1ccc(N2C(=O)CCC2=O)cc1", "Potency": "inconclusive: 12.6 µM [falling, partial curve]"}, {"smiles": "O=C(O)CCSc1nnc(CNc2ccc(Cl)cc2)n1Cc1ccccc1", "activity change, negative = inhibition": "inactive"}, {"smiles": "O=[N+]([O-])c1ccccc1-c1ccc(C(=S)N2CCN(c3ccccc3)CC2)o1", "activity change, negative = inhibition": "inconclusive: 9.87%"}, {"smiles": "CC(C)(CN=C1NS(=O)(=O)c2ccccc21)CNC(=O)c1ccccc1", "activity change, negative = inhibition": "inconclusive: -4.3%"}, {"smiles": "CCOC(=O)c1ccc(NC(=S)N2CCCC(C(=O)N3CCCC3)C2)cc1", "note": "(stereo not drawn)", "Potency": "inconclusive: 4.47 µM [falling, full curve]"}, {"smiles": "Cc1ccc2c(c1)[C@H]1[C@H](CO2)[C@H](c2ccccc2)[C@]2(C)C(=O)Nc3cc(Cl)ccc3C(=O)N12", "activity change, negative = inhibition": "inconclusive: -18.3%"}, {"smiles": "O=C(CCCN1C(=O)/C(=C\\c2ccccc2)SC1=S)Nc1ccc(C(=O)O)cc1", "Potency": "inconclusive: 3.98 µM [falling, full curve]"}, {"smiles": "O=[N+]([O-])c1ccc(C2(O)CN(c3ccccc3)C3=[N+]2CCS3)cc1", "note": "(stereo not drawn)", "activity change, negative = inhibition": "inconclusive: -5.33%"}, {"smiles": "CN(C)C(=O)COC(=O)c1ccc(S(=O)(=O)NCc2ccco2)cc1", "activity change, negative = inhibition": "inconclusive: -178%"}, {"smiles": "COc1ccc(-c2csc(N(CC3CCCO3)C(=O)c3cccs3)n2)cc1", "note": "(stereo not drawn)", "activity change, negative = inhibition": "inactive"}, {"smiles": "O=C(CCN1C(=O)/C(=C/c2ccccc2)SC1=S)NCCc1ccc(O)cc1", "activity change, negative = inhibition": "inconclusive: 14.2%"}, {"smiles": "CCOc1ccc(Nc2cc(C)nc(-n3nc(C)cc3C)n2)cc1", "Potency": "inconclusive: 14.1 µM [falling, partial curve]"}]}]}
